Reference: PubChem BioAssay AID485298 (National Center for Advancing Translational Sciences (NCATS), 2010)
About 740 (0.23%) of roughly 320,000 compounds were called active. This list was built around the results that the source calls inconclusive (neither active nor inactive); the mix of calls is not that of the screen. The call rests on the fitted dose curve; in most records, active means well fitted activation curve with a large enough effect; inconclusive means small, poorly fitted or top-dose-only effect; inactive means no such curve, though single readings can be large or run the other way. Where the call is inconclusive, the potency comes from a doubtful curve fit. A structure can be active in one record and inactive in another.

Experiment: qHTS Assay for Small Molecule Inhibitors of Mitochondrial Division or Activators of Mitochondrial Fusion; further: nearly all actives have a fitted effect of over 45% in size;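 on growth rescue (activation): temperature-sensitive fusion mutants such as fzo1-1 at 37 °C on non-fermentable ethanol glycerol medium; % of control where 0% means no effect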
Settings: S. cerevisiae fusion-defective mutant growth rescue, CellTiterGlo 48 h; growth rescue (activation): at 46.1 µM (top of the series) unless noted
In short: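 Compounds are tested for their ability to restore growth of mitochondrial fusion-defective yeast strains at non-permissive 37C in YPEG medium over 48 hours. Viability is quantified by luciferase luminescence.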
Potency means the concentration at half of the fitted maximal effect.

Row | SMILES | Potency | growth rescue (activation)
1 | O=C1C=C(c2cccc(Cl)c2)C[C@@H](c2ccc(F)cc2)C1 | inconclusive: 12.6 µM [activator, partial curve] | 
2 | Cc1[nH]c(=O)[nH]c(=O)c1S(=O)(=O)Nc1ccc(F)cc1F |  | inactive: 4.27%
3 | O=C(CN1CCN(Cc2ccc(Cl)cc2)C1=O)NCc1cccs1 | inconclusive: 3.16 µM [activator, partial curve] | 
4 | Cc1c(NC(=O)/C(C#N)=C/c2ccc(-c3ccc(Cl)c(Cl)c3)o2)c(=O)n(-c2ccccc2)n1C | inconclusive: 14.1 µM [activator, single point] | 
5 | N#Cc1c(N)nc(SCc2ccncc2)c(C#N)c1-c1cccs1 | inconclusive: 28.2 µM [activator, single point] | 
6 | Cc1cc(C)cc(NC(=O)C(Sc2ncnc3ccccc23)c2ccccc2)c1 (stereo not given) | inconclusive: 10 µM [activator, partial curve] | 
7 | CCN(C(=O)c1cc2c(=O)n3ccccc3nc2n1C)C1CCCCC1 |  | inactive: 5.22%
8 | Nc1nc(CN2CCC(Cc3ccccc3)CC2)nc(Nc2ccccc2)n1 |  | inactive: 0.306%
9 | O=C(Nc1nnc(C2CC2)o1)c1ccc(S(=O)(=O)N2CCCc3ccccc32)cc1 |  | inactive: -1.74%
10 | Cn1c(=O)cc(SCC(=O)N2CCCC2)c2ccccc21 |  | inactive: 2.38%
11 | COC(=O)c1ccccc1NC(=O)C1CC(=O)N(c2ccc(OC)cc2)C1 (stereo not given) | inconclusive: 12.6 µM [activator, partial curve] | 
12 | CC(C)OC(=O)c1ccc(NC(=O)c2ccccc2)cc1 | inconclusive: 15.8 µM [activator, partial curve] | 
13 | CCCn1c(C)cc(C(=O)COC(=O)c2ccc[nH]c2=O)c1C | inconclusive: 35.5 µM [activator, single point] | 
14 | CC(C)CCNc1nc2c(c(=O)n(Cc3cccc(F)c3)c(=O)n2C)n1C | inconclusive: 28.2 µM [activator, single point] | 
15 | O=c1c2ccccc2sn1-c1cc(S(=O)(=O)N2CCOCC2)ccc1N1CCOCC1 |  | inactive: -8.87%
16 | CCn1c2ccccc2c2cc(NC(=O)COc3ccccc3OC)ccc21 | inconclusive: 25.1 µM [activator, single point] | 
17 | O=C1S/C(=C\c2ccccc2)C(=O)N1CC(O)Cn1c2ccccc2c2ccccc21 (stereo not given) | inconclusive: 7.08 µM [activator, partial curve] | 
18 | O=C(NC(=S)Nc1ccc(Cl)c(C(=O)O)c1)c1cccc(COc2ccccc2)c1 |  | inactive: -0.477%
19 | CC(C)OP(=O)(c1ccc(N(C)C)cc1)C(Nc1ccccc1)c1ccccc1 (stereo not given) | inconclusive: 11.2 µM [activator, partial curve] | 
20 | CCCCNC(=S)N1CCn2cccc2C1c1ccccc1 (stereo not given) | inconclusive: 0.562 µM [activator, partial curve, poor fit] | 
21 | CC(C)c1nnc(NC(=O)CCS(=O)(=O)Cc2ccccc2)s1 |  | inactive: -0.731%
22 | COc1ccc(C(NC(=O)c2cc(OC)ccc2OC)c2ccccc2)cc1 (stereo not given) | inconclusive: 17.8 µM [activator, single point] | 
23 | COCCNc1nc2c(c(=O)n(Cc3cccc(Br)c3)c(=O)n2C)n1C | inconclusive: 7.08 µM [activator, partial curve] | 
24 | Cc1c(C(=O)N2CCOCC2)[nH]c2ccc(OCc3ccccc3)cc12 | inconclusive: 22.4 µM [activator, partial curve] | 

From entry 10 as far as 13, copied from above:
Row | SMILES | Potency | growth rescue (activation)
10 | Cn1c(=O)cc(SCC(=O)N2CCCC2)c2ccccc21 |  | inactive: 2.38%
11 | COC(=O)c1ccccc1NC(=O)C1CC(=O)N(c2ccc(OC)cc2)C1 (stereo not given) | inconclusive: 12.6 µM [activator, partial curve] | 
12 | CC(C)OC(=O)c1ccc(NC(=O)c2ccccc2)cc1 | inconclusive: 15.8 µM [activator, partial curve] | 
13 | CCCn1c(C)cc(C(=O)COC(=O)c2ccc[nH]c2=O)c1C | inconclusive: 35.5 µM [activator, single point] | 

(more compounds)

Row | SMILES | Potency | growth rescue (activation)
25 | C[C@@]12CCC3[C@@](CC[C@@H]4[C@](C)(C(=O)O)CCC[C@@]34C)(C[C@H]1O)C2 (stereo not given in full) | inconclusive: 11.2 µM [activator, partial curve] | 
26 | O=C(Nc1ccncc1)c1sc2ccccc2c1Cl |  | inactive: 0.437%
27 | CC(=O)Nc1cc(C(=O)N2CCc3ccccc3C2)ccc1Sc1ccc(Cl)cc1 | inconclusive: 25.1 µM [activator, single point] | 
28 | Cc1ccc(NS(=O)(=O)c2ccc(Cl)c(C(=O)Nc3ccccc3-c3nc4ccccc4[nH]3)c2)cc1C | inconclusive: 10 µM [activator, partial curve] | 
29 | COc1ccc2[nH]c(=O)c(CN(Cc3cccs3)C(=S)Nc3cccc(C)c3)cc2c1 | inconclusive: 11.2 µM [activator, partial curve] | 
30 | Cc1occc1C(=O)N/N=C/C(Br)=C/c1ccccc1 |  | inactive: 3.53%
31 | Cc1scc(C(=O)N/N=C/c2ccc(Cl)s2)c1C | active: 12.6 µM | 
32 | Cn1c(SCC(=O)N2c3ccccc3Sc3ccc(Cl)cc32)nnc1-c1ccco1 | inconclusive: 35.5 µM [activator, single point] | 
33 | CCN(CC)CC#CCOC(=O)C(O)(c1ccccc1)C1CCCCC1 (stereo not given) | active: 23.1 µM | 
34 | Cc1ccc2nc(-c3ccc(O)cc3)oc2c1 |  | inactive: -2.42%
35 | CC1=C(C(=O)OC(C)C)C(c2cccs2)C(C(=O)OC(C)C)=C(C)N1 | inconclusive: 10 µM [activator, partial curve] | 
36 | O=C(CCN1C(=O)/C(=C/c2ccccc2Cl)SC1=S)Nc1ccccn1 | inconclusive: 10 µM [activator, partial curve] | 
37 | COc1ccc(NC(=O)Nc2ccc(F)c(Cl)c2)cc1 |  | inactive: -10.5%
38 | Cc1cc(N=Cc2c(O)ccc3cc(Br)ccc23)no1 | inconclusive: 17.8 µM [activator, partial curve] | 
39 | Cc1cc2ncc(C(=O)Nc3ccsc3C(=O)O)c(C)n2n1 |  | inactive: -4.13%
40 | CCOC(=O)C1CCN(C(=O)Nc2ccc3oc(C)nc3c2)CC1 |  | inactive: -2.1%
41 | O=C(NC12CC3CC(CC(C3)C1)C2)c1ccc(-c2ccc(Br)cc2)o1 | inconclusive: 11.2 µM [activator, partial curve] | 
42 | COc1ccc(/C=N/NC(=O)c2cccc(C(F)(F)F)c2)cc1 | inconclusive: 35.5 µM [activator, single point] | 
43 | Cc1cc(C)n(CCOc2ccc(Br)cc2)n1 |  | inactive: -11.3%
44 | NS(=O)(=O)c1ccc(N/N=C/c2cn(-c3ccccc3)nc2-c2cccs2)c([N+](=O)[O-])c1 |  | inactive: 3.85%
45 | COc1ccc(NC(=O)CSc2nc3ccccc3n2-c2ccccc2)c([N+](=O)[O-])c1 | inconclusive: 10 µM [activator, partial curve] | 
46 | CCOC(=O)/C(C#N)=C1/C(=O)N(Cc2ccccc2)c2ccccc21 |  | inactive: -0.886%
47 | COc1ccc(NC(=O)CSc2nnc(-c3ccccc3Cl)n2Cc2ccco2)c(OC)c1 | inconclusive: 22.4 µM [activator, partial curve] | 
48 | O=C(/C=C/c1ccccc1)NNc1ccc(Cl)cc1 | inconclusive: 14.1 µM [activator, single point] | 

Row | SMILES | Potency | growth rescue (activation)
49 | O=C(COc1ccc(Br)cc1)N(Cc1ccccc1)c1ccccn1 | inconclusive: 12.6 µM [activator, partial curve] | 
50 | CN[C@H]1CCc2cc(OC)c(OC)c(OC)c2-c2ccc(N(C)CC(OC)OC)c(=O)cc21 |  | inactive: 1.23%
51 | Cc1cccc(Cn2c(=O)c3c(nc4n3CCCN4Cc3ccccc3)n(C)c2=O)c1 | inconclusive: 22.4 µM [activator, single point] | 
52 | O=C(Nc1ccc(Br)cc1)c1ccc(F)c(S(=O)(=O)NCc2cccs2)c1 | inconclusive: 25.1 µM [activator, single point] | 
53 | CCN(c1ccccc1)S(=O)(=O)c1cc(C(=O)Nc2ccc(F)c(F)c2)ccc1F | inconclusive: 15.8 µM [activator, partial curve] | 
54 | O=C(Nc1ccc(OCc2ccccc2Cl)cc1)c1cccnc1 |  | inactive: -19.5%
55 | c1ccc(C(c2nnnn2C2CCCC2)N2CCN(c3ccccc3)CC2)cc1 (stereo not given) | inconclusive: 12.6 µM [activator, partial curve] | 
56 | CCCC(/C=C/c1ccc(OC(C)=O)cc1)=C1/c2ccccc2C(=O)N1c1ccccc1 | inconclusive: 22.4 µM [activator, single point] | 
57 | O=C1CC(C(=O)Nc2ccc(O)c(C(=O)O)c2)C(c2ccccc2)O1 (stereo not given) |  | inactive: 1.93%
58 | CC(=O)Nc1ccc(S(=O)(=O)N(CC(=O)O)Cc2ccccc2)cc1 |  | inactive: 7.93%
59 | Cc1ccc(S(=O)(=O)NC2c3cccc4cccc(c34)C2Sc2nc(C)cc(C)n2)cc1 (stereo not given) | inconclusive: 12.6 µM [activator, partial curve] | 
60 | O=C(CNC(=O)c1ccccc1)NC1(C(=O)NC2CCCCC2)CCCCC1 | inconclusive: 22.4 µM [activator, single point] | 
61 | COCCN1CCN(c2cc(-c3ccccc3)nc3cc(-c4cccc(F)c4)nn23)CC1 | inconclusive: 20 µM [activator, single point] | 
62 | CCCCNC(=O)Nc1c(C)cc(SC#N)cc1C | inconclusive: 15.8 µM [activator, partial curve] | 
63 | O=C1c2cccc(OCc3ccc(F)cc3)c2CCN1Cc1ccc(F)cc1 | inconclusive: 22.4 µM [activator, single point] | 
64 | CC(C)(C)c1ccc(C(=O)OCCNC(=O)c2c(Cl)nc3ccccn23)cc1 | inconclusive: 12.6 µM [activator, partial curve] | 
65 | Cc1ccc(OC(C)C(=O)Nc2ccncc2)cc1 (stereo not given) |  | inactive: 2.49%
66 | Cc1cc(Cl)ccc1Nc1ncccc1C(N)=O | inconclusive: 14.1 µM [activator, single point] | 
67 | Clc1ccc(-c2nc3cnccn3c2Nc2ccc3c(c2)OCO3)cc1 | inconclusive: 20 µM [activator, single point] | 
68 | S=C(Nc1ccccc1Oc1ccccc1)Nc1cccc(Cl)c1Cl | inconclusive: 25.1 µM [activator, single point] | 
69 | COC(=O)c1cc2cc(NS(=O)(=O)c3ccc(C)cc3)ccc2s1 | inconclusive: 31.6 µM [activator, single point] | 
70 | Cc1cc(NC(=O)CSc2cc(Cl)ccc2Cl)n(-c2ccccc2)n1 | inconclusive: 31.6 µM [activator, single point] | 
